Laboratory results as given in US11322228B2, “Structure based design of d-protein ligands” (Janssen Vaccines & Prevention B.V., priority 2015, dated 2022).
For at least one compound, name, drawing or mass did not settle the structure. Where a SMILES comes first, the peptide text is derived from it. Bridges are numbered along the chain shown (N, C = ends). [ ]: non-standard residue; d: D form. d2Nal = N[C@H](Cc1ccc2ccccc2c1)C(=O)O; dNle = CCCC[C@@H](N)C(=O)O

Chains of the proteins cited; added tags and fusions are not shown. Residues count along the entry.
UniProt Q16552, 24-155: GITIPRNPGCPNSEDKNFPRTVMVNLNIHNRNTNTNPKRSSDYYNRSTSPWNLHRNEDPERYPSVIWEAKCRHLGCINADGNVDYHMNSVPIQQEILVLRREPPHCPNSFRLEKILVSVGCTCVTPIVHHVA

Molecular target: IL17A (Homo sapiens, UniProt Q16552)
Experiment: ELISA competition assay against Centyrin WPW-His on IL17A
Type: binding
From the text: In order to assess the potential binding of the D-Proteins to IL17A at the binding site of CNT06785, the D-Proteins were screened in an ELISA competition assay against a known competitor of antibody CNT06785, Centyrin WPW-His. To show the specific binding to the epitope, negative control antibody CAT2200 was taken along that binds to a different, non-overlapping epitope on IL17A. […] Upper graphs show competition with centyrin WPW, lower graphs—with antibody CAT2200 binding to a non-overlapping epitope. Response is plotted as a function of logarithm of concentration.

CCCC[C@H]1NC(=O)[C@@H](CCCCN)NC(=O)[C@@H](CCSC)NC(=O)[C@@H](CC(C)C)NC(=O)[C@@H](Cc2c[nH]cn2)NC(=O)[C@@H](CCCCN)NC(=O)[C@H]2CSSC[C@H]3NC(=O)[C@@H]([C@H](C)O)NC(=O)[C@@H](CCCCN)NC(=O)[C@@H](CCCNC(=N)N)NC(=O)[C@@H](CSSC[C@@H](NC(=O)[C@@H](Cc4ccccc4)NC(=O)[C@@H](CC(C)C)NC(=O)[C@@H](CCCCN)NC(=O)[C@H]4CCCN4C(=O)[C@@H](Cc4ccccc4)NC(=O)[C@@H]([C@H](C)O)NC(=O)[C@@H](C)NC(=O)[C@@H](CCC(N)=O)NC(=O)[C@H](NC(=O)[C@@H](CO)NC(=O)[C@H](N)CCCNC(=N)N)CSSC[C@H](C(=O)O)NC(=O)[C@@H]([C@H](C)O)NC(=O)CNC3=O)C(=O)N[C@H]([C@H](C)O)C(=O)N[C@H](C)C(=O)N[C@H](Cc3ccccc3)C(=O)N[C@H](CC(C)C)C(=O)N2)NC(=O)[C@@H](Cc2ccc3ccccc3c2)NC(=O)[C@@H](CO)NC(=O)[C@@H](CC(C)C)NC(=O)[C@@H](CCCNC(=N)N)NC1=O [DP142137, H-rscqatfpklfctaflckhlmkxrls<crktcGtc-OH] (H-[dR][dS][dC][dQ][dA][dT][dF][dP][dK][dL][dF][dC][dT][dA][dF][dL][dC][dK][dH][dL][dM][dK][dNle][dR][dL][dS][d2Nal][dC][dR][dK][dT][dC]G[dT][dC]-OH; disulfide 3-35, 12-28, 17-32)
pIC50, competition with centyrin WPW: 4.2 | IC50 (read-out: IC50 given in brackets after pIC50, competition with centyrin WPW (converted)): 64 µM
